Source: the supplement of paper PMC10032668
This is one part of the list. The list holds hits alone, and they repeat only in part.

By UniProt entry, the sequences of proteins in these tests, tags left out.
RBBP4, Q09028, UniProt Q09028, whole entry: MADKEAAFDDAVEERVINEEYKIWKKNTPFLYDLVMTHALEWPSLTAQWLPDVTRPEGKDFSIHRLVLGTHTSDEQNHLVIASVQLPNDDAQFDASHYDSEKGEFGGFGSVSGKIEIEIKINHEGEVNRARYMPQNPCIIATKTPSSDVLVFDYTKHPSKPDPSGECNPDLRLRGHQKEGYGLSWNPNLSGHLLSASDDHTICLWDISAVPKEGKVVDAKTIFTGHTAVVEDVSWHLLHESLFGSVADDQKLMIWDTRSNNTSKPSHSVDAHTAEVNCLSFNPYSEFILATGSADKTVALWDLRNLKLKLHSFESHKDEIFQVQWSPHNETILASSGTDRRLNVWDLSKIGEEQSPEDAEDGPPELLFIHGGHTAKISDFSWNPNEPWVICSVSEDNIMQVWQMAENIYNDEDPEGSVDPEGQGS
ATXN2, Q99700, UniProt Q99700, whole entry: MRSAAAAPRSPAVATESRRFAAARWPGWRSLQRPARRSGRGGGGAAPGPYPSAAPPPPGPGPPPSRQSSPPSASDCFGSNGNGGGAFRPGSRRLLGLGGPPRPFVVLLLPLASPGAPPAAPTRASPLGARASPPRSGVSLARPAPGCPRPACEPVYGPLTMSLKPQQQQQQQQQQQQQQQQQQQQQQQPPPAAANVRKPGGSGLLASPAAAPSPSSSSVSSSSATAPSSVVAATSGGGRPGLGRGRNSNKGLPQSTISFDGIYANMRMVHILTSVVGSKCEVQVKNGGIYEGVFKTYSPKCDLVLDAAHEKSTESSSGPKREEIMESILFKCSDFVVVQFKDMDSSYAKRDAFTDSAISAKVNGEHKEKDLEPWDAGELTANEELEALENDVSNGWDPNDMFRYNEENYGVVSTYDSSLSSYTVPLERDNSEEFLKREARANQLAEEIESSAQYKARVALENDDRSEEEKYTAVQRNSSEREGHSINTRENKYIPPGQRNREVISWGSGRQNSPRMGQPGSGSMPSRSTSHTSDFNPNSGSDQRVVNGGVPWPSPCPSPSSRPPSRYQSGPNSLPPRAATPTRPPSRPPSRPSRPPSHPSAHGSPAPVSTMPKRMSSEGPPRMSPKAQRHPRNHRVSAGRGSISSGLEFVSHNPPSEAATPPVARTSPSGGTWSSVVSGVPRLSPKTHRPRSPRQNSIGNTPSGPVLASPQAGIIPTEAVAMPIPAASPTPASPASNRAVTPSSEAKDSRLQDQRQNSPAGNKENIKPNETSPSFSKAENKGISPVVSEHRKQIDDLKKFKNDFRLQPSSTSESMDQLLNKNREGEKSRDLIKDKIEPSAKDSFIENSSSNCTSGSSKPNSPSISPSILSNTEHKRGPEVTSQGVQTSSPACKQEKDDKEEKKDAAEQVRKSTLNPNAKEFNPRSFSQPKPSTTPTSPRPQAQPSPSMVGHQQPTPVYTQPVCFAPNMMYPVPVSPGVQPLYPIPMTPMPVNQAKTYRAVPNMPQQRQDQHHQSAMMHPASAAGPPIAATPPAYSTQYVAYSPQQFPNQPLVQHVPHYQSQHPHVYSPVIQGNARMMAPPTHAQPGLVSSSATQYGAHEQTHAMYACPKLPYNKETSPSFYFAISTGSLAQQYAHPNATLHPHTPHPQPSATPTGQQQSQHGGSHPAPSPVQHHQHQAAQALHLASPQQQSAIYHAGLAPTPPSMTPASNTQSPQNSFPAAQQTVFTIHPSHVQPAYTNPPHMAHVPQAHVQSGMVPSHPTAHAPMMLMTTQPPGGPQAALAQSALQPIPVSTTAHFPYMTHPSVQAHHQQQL
EIF4G1, Q04637, UniProt Q04637, whole entry: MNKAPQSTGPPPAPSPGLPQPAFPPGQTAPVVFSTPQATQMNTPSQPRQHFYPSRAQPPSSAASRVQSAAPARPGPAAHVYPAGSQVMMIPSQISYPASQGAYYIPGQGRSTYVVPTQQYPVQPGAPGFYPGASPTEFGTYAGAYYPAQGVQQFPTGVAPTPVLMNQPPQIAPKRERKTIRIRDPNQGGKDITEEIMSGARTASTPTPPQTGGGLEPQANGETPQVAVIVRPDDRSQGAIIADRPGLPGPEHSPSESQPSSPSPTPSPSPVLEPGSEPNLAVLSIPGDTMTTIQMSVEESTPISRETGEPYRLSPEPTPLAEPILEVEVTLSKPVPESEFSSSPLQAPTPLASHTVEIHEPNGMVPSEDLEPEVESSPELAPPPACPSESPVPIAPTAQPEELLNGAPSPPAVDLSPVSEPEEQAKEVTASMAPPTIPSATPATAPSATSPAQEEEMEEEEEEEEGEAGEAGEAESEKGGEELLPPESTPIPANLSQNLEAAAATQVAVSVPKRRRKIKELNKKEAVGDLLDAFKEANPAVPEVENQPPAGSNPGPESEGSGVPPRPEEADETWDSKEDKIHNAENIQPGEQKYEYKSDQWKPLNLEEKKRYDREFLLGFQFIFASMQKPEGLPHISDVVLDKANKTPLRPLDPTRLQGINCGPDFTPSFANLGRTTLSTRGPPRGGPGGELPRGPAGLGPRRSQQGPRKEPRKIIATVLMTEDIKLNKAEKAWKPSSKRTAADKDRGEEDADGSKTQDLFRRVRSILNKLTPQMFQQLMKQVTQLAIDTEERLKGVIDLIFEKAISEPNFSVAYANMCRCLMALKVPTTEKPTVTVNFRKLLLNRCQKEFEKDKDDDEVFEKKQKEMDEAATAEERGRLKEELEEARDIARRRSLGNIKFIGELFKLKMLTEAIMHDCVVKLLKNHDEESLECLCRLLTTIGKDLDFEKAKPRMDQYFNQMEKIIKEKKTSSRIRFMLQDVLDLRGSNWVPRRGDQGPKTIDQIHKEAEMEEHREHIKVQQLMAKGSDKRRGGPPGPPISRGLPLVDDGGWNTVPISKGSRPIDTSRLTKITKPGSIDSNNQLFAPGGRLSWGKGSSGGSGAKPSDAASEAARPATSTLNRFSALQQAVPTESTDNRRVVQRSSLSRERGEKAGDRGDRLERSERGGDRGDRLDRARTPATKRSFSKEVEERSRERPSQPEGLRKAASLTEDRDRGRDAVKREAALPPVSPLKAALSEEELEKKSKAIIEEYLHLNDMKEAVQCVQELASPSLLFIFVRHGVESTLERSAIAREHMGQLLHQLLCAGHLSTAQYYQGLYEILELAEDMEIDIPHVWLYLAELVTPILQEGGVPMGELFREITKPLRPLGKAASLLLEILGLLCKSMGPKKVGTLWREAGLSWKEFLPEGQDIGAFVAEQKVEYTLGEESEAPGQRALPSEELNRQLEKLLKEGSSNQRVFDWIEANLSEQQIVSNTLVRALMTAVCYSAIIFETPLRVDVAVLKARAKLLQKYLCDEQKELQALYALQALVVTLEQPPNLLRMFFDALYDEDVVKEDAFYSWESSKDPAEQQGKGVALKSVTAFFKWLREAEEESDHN
FEN1, P39748, UniProt P39748, whole entry: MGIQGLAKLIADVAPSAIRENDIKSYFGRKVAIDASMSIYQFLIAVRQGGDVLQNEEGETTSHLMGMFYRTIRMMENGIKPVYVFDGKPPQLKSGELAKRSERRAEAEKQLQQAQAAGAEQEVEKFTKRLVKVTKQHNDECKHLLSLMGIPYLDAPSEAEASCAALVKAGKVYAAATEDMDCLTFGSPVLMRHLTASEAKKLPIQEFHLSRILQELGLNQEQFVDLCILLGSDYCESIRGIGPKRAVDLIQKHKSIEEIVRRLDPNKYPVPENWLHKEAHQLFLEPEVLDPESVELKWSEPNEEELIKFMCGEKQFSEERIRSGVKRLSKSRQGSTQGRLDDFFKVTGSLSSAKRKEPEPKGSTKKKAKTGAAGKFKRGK
NDUFS7, O75251, UniProt O75251, whole entry: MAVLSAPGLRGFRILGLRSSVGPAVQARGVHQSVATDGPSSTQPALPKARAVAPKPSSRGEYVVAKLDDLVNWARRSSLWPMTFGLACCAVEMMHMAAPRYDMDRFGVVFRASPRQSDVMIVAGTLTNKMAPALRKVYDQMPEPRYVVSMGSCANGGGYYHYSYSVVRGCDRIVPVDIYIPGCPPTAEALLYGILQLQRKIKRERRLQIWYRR
ATP6V1F, Q16864, UniProt Q16864, whole entry: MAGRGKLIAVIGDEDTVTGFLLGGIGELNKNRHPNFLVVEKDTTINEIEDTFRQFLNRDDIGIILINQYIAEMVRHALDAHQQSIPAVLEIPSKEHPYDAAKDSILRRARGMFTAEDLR
AURKB, Q96GD4, UniProt Q96GD4, whole entry: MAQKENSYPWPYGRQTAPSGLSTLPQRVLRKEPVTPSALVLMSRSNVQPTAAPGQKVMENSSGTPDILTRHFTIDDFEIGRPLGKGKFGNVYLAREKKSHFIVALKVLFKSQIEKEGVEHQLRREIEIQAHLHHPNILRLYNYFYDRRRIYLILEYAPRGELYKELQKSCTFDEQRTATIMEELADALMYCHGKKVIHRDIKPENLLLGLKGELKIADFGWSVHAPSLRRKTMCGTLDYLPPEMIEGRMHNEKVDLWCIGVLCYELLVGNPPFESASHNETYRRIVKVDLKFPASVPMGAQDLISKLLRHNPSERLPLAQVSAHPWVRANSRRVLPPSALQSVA
MAPK1, P28482, UniProt P28482, whole entry: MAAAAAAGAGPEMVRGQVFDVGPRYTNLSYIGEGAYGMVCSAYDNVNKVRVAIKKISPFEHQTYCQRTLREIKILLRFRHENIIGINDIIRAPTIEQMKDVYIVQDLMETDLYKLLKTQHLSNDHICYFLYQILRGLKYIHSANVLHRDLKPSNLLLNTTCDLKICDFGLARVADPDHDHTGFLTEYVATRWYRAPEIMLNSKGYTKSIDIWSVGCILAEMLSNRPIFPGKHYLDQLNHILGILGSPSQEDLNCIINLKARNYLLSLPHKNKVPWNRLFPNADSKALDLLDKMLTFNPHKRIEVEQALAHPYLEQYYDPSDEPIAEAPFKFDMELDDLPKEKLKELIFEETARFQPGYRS
NDUFA9, Q16795, UniProt Q16795, whole entry: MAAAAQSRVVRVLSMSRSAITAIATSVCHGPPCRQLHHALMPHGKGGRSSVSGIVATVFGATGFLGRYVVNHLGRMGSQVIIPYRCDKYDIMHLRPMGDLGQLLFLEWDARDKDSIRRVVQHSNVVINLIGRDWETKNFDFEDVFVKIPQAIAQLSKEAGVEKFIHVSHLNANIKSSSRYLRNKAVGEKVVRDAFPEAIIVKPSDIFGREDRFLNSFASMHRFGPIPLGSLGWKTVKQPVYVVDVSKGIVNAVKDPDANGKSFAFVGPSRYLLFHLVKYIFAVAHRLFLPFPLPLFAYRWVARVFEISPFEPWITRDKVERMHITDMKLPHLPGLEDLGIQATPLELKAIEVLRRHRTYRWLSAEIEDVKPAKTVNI
PIN1, Q13526, UniProt Q13526, whole entry: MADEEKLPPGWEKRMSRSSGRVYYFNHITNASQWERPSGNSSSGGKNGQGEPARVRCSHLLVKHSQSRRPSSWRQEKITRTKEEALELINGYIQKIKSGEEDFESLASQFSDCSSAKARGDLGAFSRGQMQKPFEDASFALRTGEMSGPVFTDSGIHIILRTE
CAMK2D, Q13557, UniProt Q13557, whole entry: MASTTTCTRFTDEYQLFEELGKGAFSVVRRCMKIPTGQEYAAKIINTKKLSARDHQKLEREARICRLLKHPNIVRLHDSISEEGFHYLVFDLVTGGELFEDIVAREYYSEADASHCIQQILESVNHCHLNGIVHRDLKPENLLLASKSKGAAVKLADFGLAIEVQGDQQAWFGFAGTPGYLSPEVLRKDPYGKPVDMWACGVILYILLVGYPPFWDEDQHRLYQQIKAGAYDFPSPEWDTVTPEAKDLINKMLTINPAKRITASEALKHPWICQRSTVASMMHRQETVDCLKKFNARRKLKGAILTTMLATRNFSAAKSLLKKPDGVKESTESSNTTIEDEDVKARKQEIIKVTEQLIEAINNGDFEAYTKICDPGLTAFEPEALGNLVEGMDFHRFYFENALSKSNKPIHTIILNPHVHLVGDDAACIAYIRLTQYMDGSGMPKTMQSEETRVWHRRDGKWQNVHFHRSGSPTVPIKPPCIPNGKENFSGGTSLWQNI
NDUFB7, P17568, UniProt P17568, whole entry: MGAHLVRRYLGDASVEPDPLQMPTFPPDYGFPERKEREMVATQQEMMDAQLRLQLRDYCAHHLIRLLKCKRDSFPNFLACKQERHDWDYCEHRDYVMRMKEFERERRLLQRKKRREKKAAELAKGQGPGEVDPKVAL
PLK1, P53350, UniProt P53350, whole entry: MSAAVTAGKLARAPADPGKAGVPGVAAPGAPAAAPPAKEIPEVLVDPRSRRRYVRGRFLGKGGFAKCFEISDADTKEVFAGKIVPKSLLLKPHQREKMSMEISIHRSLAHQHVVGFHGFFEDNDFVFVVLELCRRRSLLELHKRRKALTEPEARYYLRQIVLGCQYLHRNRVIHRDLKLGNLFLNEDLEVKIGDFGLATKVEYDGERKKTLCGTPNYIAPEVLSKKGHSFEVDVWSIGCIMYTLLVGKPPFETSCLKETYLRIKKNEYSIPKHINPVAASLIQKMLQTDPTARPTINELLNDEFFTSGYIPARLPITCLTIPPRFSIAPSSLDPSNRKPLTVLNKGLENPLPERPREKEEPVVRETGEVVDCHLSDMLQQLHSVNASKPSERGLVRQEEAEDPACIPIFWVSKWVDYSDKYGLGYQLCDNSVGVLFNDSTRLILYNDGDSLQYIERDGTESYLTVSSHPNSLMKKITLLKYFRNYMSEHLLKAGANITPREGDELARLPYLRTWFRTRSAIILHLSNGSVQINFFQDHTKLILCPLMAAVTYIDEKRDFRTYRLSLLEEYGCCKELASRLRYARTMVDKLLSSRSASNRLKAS

Tests used:
Assay in all cases: PRISMA enrichment of interactor (LFQ) in peptide spot vs all other peptide spots (log2 fold change); higher = stronger / more specific binding of the interactor to the peptide
[1] = target: AURKAIP1, Q9NWT8
Experimental: (§1)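 PRISMA: 15-aa overlapping tiles (offset 8 aa) of 60 microproteins, plus SOS1/GLUT1 control peptides, were spot-synthesized on cellulose membranes in triplicate. Membranes were incubated with benzonase-treated HEK293T lysate, and bound proteins were identified by LC-MS/MS with LFQ. Enrichment is the log2 fold change of each protein in one spot versus all other spots. Only interactors passing the significance cutoff are listed.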

[2] = target: COPS6, Q7L5N1
Experimental: as §1

[3] = target: GATA3, P23771
Experimental: as §1

[4] = target: NFS1, Q9Y697
Experimental: as §1

[5] = target: POLD2, P49005
Experimental: as §1

[6] = target: RBBP4, Q09028
Experimental: as §1

[7] = target: ATXN2, Q99700
Experimental: as §1

[8] = target: CC2D1A, Q6P1N0
Experimental: as §1

[9] = target: CDK5, Q00535
Experimental: as §1

[10] = substrate: CNBP, P62633
Experimental: as §1

[11] = target: COPS5, Q92905
Experimental: as §1

[12] = target: CPSF3, Q9UKF6
Experimental: as §1

[13] = target: CRKL, P46109
Experimental: as §1

[14] = target: DDX51, Q8N8A6
Experimental: as §1

[15] = target: EIF4G1, Q04637
Experimental: as §1

[16] = target: EXOC4, Q96A65
Experimental: as §1

[17] = target: EYA3, Q99504
Experimental: as §1

[18] = target: FEN1, P39748
Experimental: as §1

[19] = target: HOXB6, P17509
Experimental: as §1

[20] = target: IMP4, Q96G21
Experimental: as §1

[21] = target: MARK2, Q7KZI7
Experimental: as §1

[22] = target: MTCH2, Q9Y6C9
Experimental: as §1

[23] = target: NDUFS7, O75251
Experimental: as §1

[24] = target: NOL6, Q9H6R4
Experimental: as §1

[25] = target: PLS3, P13797
Experimental: as §1

[26] = target: RAB14, P61106
Experimental: as §1

[27] = target: RBM26, Q5T8P6
Experimental: as §1

[28] = target: RNH1, P13489
Experimental: as §1

[29] = target: SAFB, Q15424
Experimental: as §1

[30] = target: SNAPIN, O95295
Experimental: as §1

[31] = target: SUGT1, Q9Y2Z0
Experimental: as §1

[32] = target: TCAF1, Q9Y4C2
Experimental: as §1

[33] = target: USP39, Q53GS9
Experimental: as §1

[34] = target: WDR61, Q9GZS3
Experimental: as §1

[35] = target: YWHAG, P61981
Experimental: as §1

[36] = target: ZFR, Q96KR1
Experimental: as §1

[37] = target: ZNF503, Q96F45
Experimental: as §1

[38] = target: ZRANB2, O95218
Experimental: as §1

[39] = target: ATXN2L, Q8WWM7
Experimental: as §1

[40] = target: C19orf53, Q9UNZ5
Experimental: as §1

[41] = target: CHD3, Q12873
Experimental: as §1

[42] = target: DBR1, Q9UK59
Experimental: as §1

[43] = target: GATAD2A, Q86YP4
Experimental: as §1

[44] = target: HAGH, Q16775
Experimental: as §1

[45] = target: LYZ, P61626
Experimental: as §1

[46] = target: MRPS18B, Q9Y676
Experimental: as §1

[47] = target: NELFE, P18615
Experimental: as §1

[48] = target: PUSL1, Q8N0Z8
Experimental: as §1

[49] = target: SRP14, P37108
Experimental: as §1

[50] = target: TRAP1, Q12931
Experimental: as §1

[51] = target: ZNF22, P17026
Experimental: as §1

[52] = target: ATP6V1F, Q16864
Experimental: as §1

[53] = target: AUTS2, Q8WXX7
Experimental: as §1

[54] = target: CCDC86, Q9H6F5
Experimental: as §1

[55] = target: IVD, P26440
Experimental: as §1

[56] = target: WDR43, Q15061
Experimental: as §1

[57] = target: AURKB, Q96GD4
Experimental: as §1

[58] = target: CNN3, Q15417
Experimental: as §1

[59] = target: GET4, Q7L5D6
Experimental: as §1

[60] = target: KRT18, P05783
Experimental: as §1

[61] = target: MAPK1, P28482
Experimental: as §1

[62] = target: MYO1D, O94832
Experimental: as §1

[63] = target: NDUFA9, Q16795
Experimental: as §1

[64] = target: NUBP2, Q9Y5Y2
Experimental: as §1

[65] = target: PIN1, Q13526
Experimental: as §1

[66] = target: PRPF40A, O75400
Experimental: as §1

[67] = target: PTCD3, Q96EY7
Experimental: as §1

[68] = target: RANBP2, P49792
Experimental: as §1

[69] = target: SMARCA5, O60264
Experimental: as §1

[70] = target: SMC5, Q8IY18
Experimental: as §1

[71] = target: SRP68, Q9UHB9
Experimental: as §1

[72] = target: SUB1, P53999
Experimental: as §1

[73] = target: TBCD, Q9BTW9
Experimental: as §1

[74] = target: VMP1, Q96GC9
Experimental: as §1

[75] = target: ATXN7L3B, Q96GX2
Experimental: as §1

[76] = target: CAMK2D, Q13557
Experimental: as §1

[77] = target: HNRNPF, P52597
Experimental: as §1

[78] = target: MRPL44, Q9H9J2
Experimental: as §1

[79] = target: NDUFB7, P17568
Experimental: as §1

[80] = target: PLK1, P53350
Experimental: as §1

[81] = target: POLR2C, P19387
Experimental: as §1

[82] = target: RRS1, Q15050
Experimental: as §1

[83] = target: SCD, O00767
Experimental: as §1

[84] = target: SHROOM3, Q8TF72
Experimental: as §1

[85] = target: ZNF326, Q5BKZ1
Experimental: as §1

Binder: QLRYTDRDFYFASIR [MIEF-MP]
- PRISMA enrichment of interactor (log2) [1]: 5.08
- PRISMA enrichment of interactor (log2) [2]: 5.89
- PRISMA enrichment of interactor (log2) [3]: 5.91
- PRISMA enrichment of interactor (log2) [4]: 4.99
- PRISMA enrichment of interactor (log2) [5]: 5.11
- PRISMA enrichment of interactor (log2) [6]: 7.51

Binder: WQGQVAKCTQPSQQG [RP11-140K17.3]
- PRISMA enrichment of interactor (log2) [7]: 5.48
- PRISMA enrichment of interactor (log2) [8]: 6.27
- PRISMA enrichment of interactor (log2) [9]: 3.93
- PRISMA enrichment of interactor (log2) [10]: 3.95
- PRISMA enrichment of interactor (log2) [11]: 4.47
- PRISMA enrichment of interactor (log2) [12]: 4.24
- PRISMA enrichment of interactor (log2) [13]: 4.24
- PRISMA enrichment of interactor (log2) [14]: 5.64
- PRISMA enrichment of interactor (log2) [15]: 5
- PRISMA enrichment of interactor (log2) [16]: 5.84
- PRISMA enrichment of interactor (log2) [17]: 4.74
- PRISMA enrichment of interactor (log2) [18]: 7.28
- PRISMA enrichment of interactor (log2) [19]: 3.78
- PRISMA enrichment of interactor (log2) [20]: 3.6
- PRISMA enrichment of interactor (log2) [21]: 8.69
- PRISMA enrichment of interactor (log2) [22]: 4.83
- PRISMA enrichment of interactor (log2) [23]: 4.61
- PRISMA enrichment of interactor (log2) [24]: 4.87
- PRISMA enrichment of interactor (log2) [25]: 4.7
- PRISMA enrichment of interactor (log2) [26]: 6.85
- PRISMA enrichment of interactor (log2) [27]: 5.09
- PRISMA enrichment of interactor (log2) [28]: 4.25
- PRISMA enrichment of interactor (log2) [29]: 4.9
- PRISMA enrichment of interactor (log2) [30]: 5.18
- PRISMA enrichment of interactor (log2) [31]: 4.45
- PRISMA enrichment of interactor (log2) [32]: 4.9
- PRISMA enrichment of interactor (log2) [33]: 4.7
- PRISMA enrichment of interactor (log2) [34]: 4.51
- PRISMA enrichment of interactor (log2) [35]: 4.52
- PRISMA enrichment of interactor (log2) [36]: 6.63
- PRISMA enrichment of interactor (log2) [37]: 3.72
- PRISMA enrichment of interactor (log2) [38]: 6.71

Binder: SDSSDTSEGFRLHLE [NAV2-AS2_2]
- PRISMA enrichment of interactor (log2) [39]: 6.08
- PRISMA enrichment of interactor (log2) [40]: 7.51
- PRISMA enrichment of interactor (log2) [41]: 4.83
- PRISMA enrichment of interactor (log2) [42]: 3.94
- PRISMA enrichment of interactor (log2) [43]: 7.75
- PRISMA enrichment of interactor (log2) [44]: 5.71
- PRISMA enrichment of interactor (log2) [45]: 3.77
- PRISMA enrichment of interactor (log2) [46]: 4.33
- PRISMA enrichment of interactor (log2) [47]: 5.13
- PRISMA enrichment of interactor (log2) [48]: 5.29
- PRISMA enrichment of interactor (log2) [49]: 5.6
- PRISMA enrichment of interactor (log2) [50]: 5.29
- PRISMA enrichment of interactor (log2) [51]: 4.56

Binder: LPRLFTTKPPPRRRA [RP11-140K17.3_2]
- PRISMA enrichment of interactor (log2) [52]: 5.21
- PRISMA enrichment of interactor (log2) [53]: 4.62
- PRISMA enrichment of interactor (log2) [54]: 4.88
- PRISMA enrichment of interactor (log2) [55]: 5.21
- PRISMA enrichment of interactor (log2) [56]: 4.42

Binder: VTEARQRFHLGEGER [RP1-206D15.6]
- PRISMA enrichment of interactor (log2) [57]: 5.38
- PRISMA enrichment of interactor (log2) [58]: 5.87
- PRISMA enrichment of interactor (log2) [59]: 4.97
- PRISMA enrichment of interactor (log2) [60]: 5.25
- PRISMA enrichment of interactor (log2) [61]: 9.11
- PRISMA enrichment of interactor (log2) [62]: 5.18
- PRISMA enrichment of interactor (log2) [63]: 5.43
- PRISMA enrichment of interactor (log2) [64]: 7.48
- PRISMA enrichment of interactor (log2) [65]: 5.96
- PRISMA enrichment of interactor (log2) [66]: 5.93
- PRISMA enrichment of interactor (log2) [67]: 6.16
- PRISMA enrichment of interactor (log2) [68]: 5.64
- PRISMA enrichment of interactor (log2) [69]: 6.43
- PRISMA enrichment of interactor (log2) [70]: 4.23
- PRISMA enrichment of interactor (log2) [71]: 5.84
- PRISMA enrichment of interactor (log2) [72]: 6.71
- PRISMA enrichment of interactor (log2) [73]: 5.38
- PRISMA enrichment of interactor (log2) [74]: 9.68

Binder: MVSRCLSEPVSLTAC [ABR]
- PRISMA enrichment of interactor (log2) [75]: 5.59
- PRISMA enrichment of interactor (log2) [76]: 4.14
- PRISMA enrichment of interactor (log2) [77]: 5.09
- PRISMA enrichment of interactor (log2) [78]: 4.66
- PRISMA enrichment of interactor (log2) [79]: 7.6
- PRISMA enrichment of interactor (log2) [80]: 6.06
- PRISMA enrichment of interactor (log2) [81]: 5.34
- PRISMA enrichment of interactor (log2) [82]: 4.91
- PRISMA enrichment of interactor (log2) [83]: 7.82
- PRISMA enrichment of interactor (log2) [84]: 8.46
- PRISMA enrichment of interactor (log2) [85]: 5.44
